Reference: publication PMC7819943, “Rice protein-binding microarrays: a tool to detect cis-acting elements near promoter regions in rice”
The list shows a part of the results.

Target: T1, OsSMF1 (Oryza sativa, UniProt Q6ZLB0 1-436)
T1 sequence: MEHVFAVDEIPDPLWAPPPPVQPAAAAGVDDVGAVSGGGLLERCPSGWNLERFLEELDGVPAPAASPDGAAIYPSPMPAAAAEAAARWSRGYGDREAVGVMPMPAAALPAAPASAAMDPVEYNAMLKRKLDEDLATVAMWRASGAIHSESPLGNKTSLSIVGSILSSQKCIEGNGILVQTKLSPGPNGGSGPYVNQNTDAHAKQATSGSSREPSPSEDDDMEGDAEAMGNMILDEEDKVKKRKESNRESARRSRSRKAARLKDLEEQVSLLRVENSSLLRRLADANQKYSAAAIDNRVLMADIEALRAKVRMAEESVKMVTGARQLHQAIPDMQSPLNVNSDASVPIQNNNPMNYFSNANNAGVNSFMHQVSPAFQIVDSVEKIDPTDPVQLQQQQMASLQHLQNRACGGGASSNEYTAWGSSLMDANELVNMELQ
Experiment: protein-binding microarray (RPBM); PBS, 2% BSA, 51.3 ng/ul salmon testes DNA, 50 uM zinc acetate, 200 nM TF, 25 C, 1 h; high values mean tight binding
Details: protein: recombinant; tags: N-terminal polyhistidine and DsRed monomer fusion (pET32a); chain copies: 2; label: CyDye5-dUTP incorporated in the synthesized complementary strand; 3' TTTTT single-stranded linker to array surface; dsDNA, one strand shown
In short: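 In PBS with 2% BSA, salmon testes DNA and 50 µM zinc acetate, 200 nM protein was incubated on a custom Agilent array at 25 °C for 1 h and then washed off. The array had been made double-stranded by primer extension with Cy5-dUTP and blocked with 2% BSA. The proteins were transcription factors fused N-terminally to polyhistidine and DsRed, expressed in E. coli BL21-CodonPlus and purified on Ni–NTA. The binding signal is per-feature fluorescence intensity (arbitrary units) from an Axon 4000B scanner.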

Row | Sequence | binding signal
1 | CGAGACCATCGGCGGCCACGCTCTTACACGCCATCAACCGCGGAGTCACCTAGTGCAG | 5440 fluorescence intensity (a.u.)
2 | AACCTAGTGTCAGCTACCTATTTCCCACCATCCTCAGCTACGGAGTCACCTAGTGCAG | 3320 fluorescence intensity (a.u.)
3 | AAGTAGTCCTAGCTAGTGCTGCGTCCAGTTTTGTTTCTTGCGGAGTCACCTAGTGCAG | 19400 fluorescence intensity (a.u.)
4 | GTTGCTCGGATCGGATAAGACAATACAGTTATTTGTGTTACGGAGTCACCTAGTGCAG | 8900 fluorescence intensity (a.u.)
5 | CGAGGTCGAGGCTGTTGCGTGGCGCCTGGAGGCCTCCGTCCGGAGTCACCTAGTGCAG | 3680 fluorescence intensity (a.u.)
6 | TACAAGTATAAAACTTTAGATACGTGGGATTAACACGTCACGGAGTCACCTAGTGCAG | 6470 fluorescence intensity (a.u.)
7 | ATCCCCACCGTTGACCGAAGTTGACCTCCAAGAATCCTGACGGAGTCACCTAGTGCAG | 3620 fluorescence intensity (a.u.)
8 | TAAATATACTTGATTTACTGCTGTGTGACCATATATGCTTCGGAGTCACCTAGTGCAG | 3590 fluorescence intensity (a.u.)
9 | CATGTTTGAGATTGCGTCATGATCGGATAATGTTGCGTCACGGAGTCACCTAGTGCAG | 7810 fluorescence intensity (a.u.)
10 | GAGCCTCGTCCCTATCCCACATCACCTTGCTCGATCGCCTCGGAGTCACCTAGTGCAG | 3220 fluorescence intensity (a.u.)
11 | TTTGGTTCCTGGTGTTCGGGCTGAAGGCCACATAGGAGCACGGAGTCACCTAGTGCAG | 3480 fluorescence intensity (a.u.)
12 | ACTTATCACGTTTATACTGTCGACAATATACCTACAATTGCGGAGTCACCTAGTGCAG | 3220 fluorescence intensity (a.u.)
13 | ACTTGTCGGTCGTGACATCATACACGAGCGAAAAGGAGGACGGAGTCACCTAGTGCAG | 4770 fluorescence intensity (a.u.)
14 | TACGTCGTCTGCCTCCGCAGCGCCACGCCGGACGCCACCGCGGAGTCACCTAGTGCAG | 4150 fluorescence intensity (a.u.)
15 | CTTCTTCGGGCCTTCTTTCAGAACTTTGGGTGGGCCTCACCGGAGTCACCTAGTGCAG | 64300 fluorescence intensity (a.u.)
16 | AGATTTGTGTGTGTGGTTGCTGTTGCTGTGTGTGAATGGACGGAGTCACCTAGTGCAG | 4110 fluorescence intensity (a.u.)
17 | CTAGAACGTACGGGCTGAAATCAATCTTGGGTTTCTACTGCGGAGTCACCTAGTGCAG | 3280 fluorescence intensity (a.u.)
18 | CTACGGAGCATGCCACATAGGCAAAACCACGGTCAAACAACGGAGTCACCTAGTGCAG | 6090 fluorescence intensity (a.u.)
19 | CGCACGCTAGAGTGTCGTCATCGTTGCCGCTGCTGCTGGGCGGAGTCACCTAGTGCAG | 3450 fluorescence intensity (a.u.)
20 | CGAATGTTTTCCCGATGGGAGCCACGTGTCCTCGTGTGGACGGAGTCACCTAGTGCAG | 23100 fluorescence intensity (a.u.)
21 | AAGATAAGCATCGCGTCATGGCCCAGCTCGGAGGAGGAGCCGGAGTCACCTAGTGCAG | 3250 fluorescence intensity (a.u.)
22 | GATGTTGATGCCACCGTGGTTGCCGACGGGCAGGTGTGATCGGAGTCACCTAGTGCAG | 3830 fluorescence intensity (a.u.)
23 | TGGTGTTAGCTCACGTGAAAAGTCTTGCCTTCCAGACTGCCGGAGTCACCTAGTGCAG | 19300 fluorescence intensity (a.u.)

Some values from the entries so far:
In binding signal, AACCTAGTGTCAGCTACCTATTTCCCACCATCCTCAGCTACGGAGTCACCTAGTGCAG reads 3320 fluorescence intensity (a.u.)
In binding signal, TACAAGTATAAAACTTTAGATACGTGGGATTAACACGTCACGGAGTCACCTAGTGCAG reads 6470 fluorescence intensity (a.u.)
